# Results as given in the supplement of paper PMC12764529.
# ± gives the half width of the 95% confidence interval. For many entries, trypsin and chymotrypsin gave values far apart.
# Tests used:
# [1] = folding stability dG unfold from chymotrypsin proteolysis; higher = more stable
# Outline: (§1)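 Sequencing followed digestion of designed mini-proteins with trypsin and chymotrypsin, each at 11 concentrations in threefold dilutions together with a no-protease condition. The mini-proteins were under 80 residues, had no cysteine, sat in a PA-tagged cDNA display construct, and were kept only if AlphaFold2 dimer inter-PAE was above 15. From the counts, Bayesian fitting gave K50, and unfolding free energy was derived against a sequence-predicted unfolded-state K50 and a shared folded-state K50, per protease or combined.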
# [2] = folding stability dG unfold from trypsin proteolysis; higher = more stable
# Outline: as §1
# [3] = folding stability dG unfold (combined trypsin and chymotrypsin); higher = more stable
# Outline: as §1
Sequence,folding stability dG unfold [1] [kcal/mol],folding stability dG unfold [2] [kcal/mol],folding stability dG unfold [3] [kcal/mol]
SAGGSAGGSAGGPMPVSVSPIGTKVEKTEEPLVVETTTTLSDAEGPPVTTTTTTVTPPSTSAGGSAGGSAGG [r11_129_JUSTAS],1.33 ± 0.1,1.27 ± 0.08,1.35 ± 0.13
SKKVKIVSIEFDKETGTITIKIKLEDGTTYTLTINPDGTVTITNKDTGKTITITFVDGKLVITISDDVKPSA [r9_233_TrROS_Hall],5.25 ± 0.12,3.22 ± 0.1,5.23 ± 0.29
SAGNKIEIEPVNYEPMPNGYYRVTARVTIENPNNKKPWDIDVEAYYPMDPNGQPMNVDEIAKEAIKKIFSAG [r5_604_TrROS],1.36 ± 0.11,0.624 ± 0.098,1.07 ± 0.24
SAGGSAGGSAGGTTTTVTFSSEEEAKKLAEEYKKKGYKVEITEDPATGKVTLTITIKPKGSAGGSAGGSAGG [r7_623_JUSTAS],4.73 ± 0.1,2.09 ± 0.17,4.5 ± 0.21
SAGGSAGGSAGGDDDWRIMINIEIWPYPNYVRIRFPIMIIPPDGKLIGSVEVTFWIPANDSAGGSAGGSAGG [r7_812_TrROS],3.84 ± 0.37,3.2 ± 0.18,3.7 ± 0.38
SAGAIEKILEALKKAKPGEKVEITIKLPDGSTIKITITYDKETGKYTITVKVIDKKTGKIVKEFKFTLPSAG [r5_35_TrROS_Hall],5.6 ± 0.11,3.23 ± 0.14,5.6 ± 0.24
SAGGSYTMGMKFEFHFFTLGRSPDGQWSMGMYPIEIEIEVPVPPPPPPPPITPEEAAEKNGNPGDVSAGGSA [r2_340_TrROS],4.44 ± 0.24,1.71 ± 0.13,3.71 ± 0.37
SAGGSAGGSAGGKWVFLMFPIEISMTVYEPDDDGEWKQEKYTMEITIMFWLPPNDPDLLSAGGSAGGSAGGS [r10_1133_TrROS],4.69 ± 0.094,0.942 ± 0.043,4.03 ± 0.16
SAGGSAPEEKPVVKTVTIKVTNEDGSTYEAEIVFTPDKVFVRITFPDGYVFTFDKDGKLVKVEKLKSAGGSA [r2_68_TrROS_Hall],5.06 ± 0.19,2.76 ± 0.19,4.79 ± 0.32
SAGGIVFSFMLPDGFMIEFDLEWSPGYFKVDVEWYWGNEPQTMERTIPLPPPPPPPVPADNPDDAEEASAGG [r13_691_TrROS],3.87 ± 0.075,1.17 ± 0.13,3.25 ± 0.33
SAGGSAGGSAGGAERLPDGRWRFTLRYRPGEDGEPEIVVEVEVDVPPGLAELPVVVVTGSAGGSAGGSAGGS [r10_672_TrMRF],3.4 ± 0.068,0.542 ± 0.086,2.6 ± 0.13
SAGGSVSVSYDPESGVLTITIEAENPEEVIEFIKNFVPPEYTVGPITVVKLPDGTYVAFVEIYSRKDKSAGG [r13_338_TrMRF],4.72 ± 0.16,1.48 ± 0.07,4.42 ± 0.19
SAGGSAGGMTVTFTLPATAPENALENVTATVTYNGKTYLVKITATPVPDGPFVVVTAELVEYDPSAGGSAGG [r6_415_TrMRF],3.68 ± 0.14,3.02 ± 0.083,3.34 ± 0.17
SAGGSAKIVIKMTPEEIKELAKKLGIKDAKVELVEKKKTKEGEVYVIKITVYENGKKKKEIEIVFPSAGGSA [r15_428_TrROS_Hall],3.72 ± 0.25,0.869 ± 0.17,2.74 ± 0.39
SAGGSAGGSAKKKKIKNKKKKVFKIELKIEVELKKLPNGTVVLKAKIEINGKKYELELVLKPSAGGSAGGSA [r18_335_TrROS_Hall],4.6 ± 0.15,2.41 ± 0.14,4.38 ± 0.39
SAGGGGMTSSSTLTDPVTGASVSVTTTLLPDGTPVVTLTLSDGTVVTFTFPPGNPPTLEEIAAFIAARSAGG [r13_492_JUSTAS],5.37 ± 0.13,2.97 ± 0.12,5.15 ± 0.17
SAGGSAGGSAGGIDPDDPGYTRVIPIIFVIPNGRVWKMSIWVYPNNNIMIEIEWIPAGDISAGGSAGGSAGG [r7_214_TrROS],5.27 ± 0.19,2.91 ± 0.16,4.74 ± 0.17
SAGGKKEVKIEIKKEGDKLVIKIEEVDGKLYVTLPNGEIVEIEFDEETGEIKIRFKNGEELTFKLPPSAGGS [r16_602_TrROS_Hall],4.03 ± 0.088,1.62 ± 0.078,3.58 ± 0.13
SAGGSAGGSSYTTSTATDPNADVTTTTTTYPDSIVTPVWDPRTGKVVETVTTTPDGTTTTVAASAGGSAGGS [r12_563_JUSTAS],0.0262 ± 0.17,0.543 ± 0.068,0.289 ± 0.14
SAGGSAGGSAIPAGARVRVRVSDSLTRNPDGSLTVRRTVEIEVVSPDGSRARLRFTFTGEASSAGGSAGGSA [r18_76_TrMRF],4.623 ± 0.039,1.56 ± 0.027,4.23 ± 0.06
SAGNFNIKEQKETDGRRVIEIPMPGSGHEITIVFERNPDGPRKININMNGPMADYLREALPGIDRVEIISAG [r5_933_TrROS],0.275 ± 0.26,0.187 ± 0.31,0.213 ± 0.22

# Whole records from above. Order of values: folding stability dG unfold [1] [kcal/mol]	folding stability dG unfold [2] [kcal/mol]	folding stability dG unfold [3] [kcal/mol]
# SAGGSAGGSAGGDDDWRIMINIEIWPYPNYVRIRFPIMIIPPDGKLIGSVEVTFWIPANDSAGGSAGGSAGG [r7_812_TrROS] reads 3.84 ± 0.37	3.2 ± 0.18	3.7 ± 0.38
# SAGGIVFSFMLPDGFMIEFDLEWSPGYFKVDVEWYWGNEPQTMERTIPLPPPPPPPVPADNPDDAEEASAGG [r13_691_TrROS] reads 3.87 ± 0.075	1.17 ± 0.13	3.25 ± 0.33
